Assay [1] addresses GST-tagged β-catenin (human (gene ID 1499)) (UniProt P35222). Put plainly: pull-down; GST-β-catenin on glutathione-sepharose 4B beads incubated with lysates of HEK293T cells expressing Flag-Plk1 forms, 2 h at 4°C; washed four times with cell lysis buffer; blots with anti-Flag and anti-GST; only the target purified.
Assay [2] concerns the target β-catenin, endogenous (human (endogenous in A549 and NCI-H460)) (UniProt P35222). In words: co-IP; lysates of A549 or NCI-H460 cells, with TGF-β (2.5 ng/ml, 48 h) or vehicle; immunoprecipitation with normal IgG, anti-PLK1 or anti-β-catenin, 16 h at 4°C, protein A/G agarose; blots with anti-PLK1 and anti-β-catenin.

Sequences of proteins named here, by UniProt entry; tags and fusion partners are left off. A change or cut given only in a name is not applied to a line headed by its entry.
UniProt P35222: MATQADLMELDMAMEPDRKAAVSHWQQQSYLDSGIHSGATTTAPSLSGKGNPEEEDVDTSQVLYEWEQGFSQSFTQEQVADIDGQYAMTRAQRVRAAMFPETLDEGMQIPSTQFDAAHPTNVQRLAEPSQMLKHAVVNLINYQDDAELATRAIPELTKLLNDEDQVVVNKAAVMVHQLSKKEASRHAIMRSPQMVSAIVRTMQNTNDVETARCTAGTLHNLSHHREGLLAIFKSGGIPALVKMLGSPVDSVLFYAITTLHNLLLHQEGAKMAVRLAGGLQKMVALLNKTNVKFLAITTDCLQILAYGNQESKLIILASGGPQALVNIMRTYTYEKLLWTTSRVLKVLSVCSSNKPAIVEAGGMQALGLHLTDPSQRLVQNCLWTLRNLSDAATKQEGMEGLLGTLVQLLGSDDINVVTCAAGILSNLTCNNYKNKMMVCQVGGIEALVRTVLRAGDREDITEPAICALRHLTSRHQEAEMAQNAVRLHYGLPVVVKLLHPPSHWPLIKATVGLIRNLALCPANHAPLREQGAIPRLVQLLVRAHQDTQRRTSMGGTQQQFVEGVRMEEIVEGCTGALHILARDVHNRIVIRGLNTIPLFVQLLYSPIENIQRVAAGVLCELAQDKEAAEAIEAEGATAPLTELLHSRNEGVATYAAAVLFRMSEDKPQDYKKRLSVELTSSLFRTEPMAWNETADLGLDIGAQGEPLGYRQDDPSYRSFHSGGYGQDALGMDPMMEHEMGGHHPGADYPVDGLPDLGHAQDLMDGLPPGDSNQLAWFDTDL
UniProt Q07832: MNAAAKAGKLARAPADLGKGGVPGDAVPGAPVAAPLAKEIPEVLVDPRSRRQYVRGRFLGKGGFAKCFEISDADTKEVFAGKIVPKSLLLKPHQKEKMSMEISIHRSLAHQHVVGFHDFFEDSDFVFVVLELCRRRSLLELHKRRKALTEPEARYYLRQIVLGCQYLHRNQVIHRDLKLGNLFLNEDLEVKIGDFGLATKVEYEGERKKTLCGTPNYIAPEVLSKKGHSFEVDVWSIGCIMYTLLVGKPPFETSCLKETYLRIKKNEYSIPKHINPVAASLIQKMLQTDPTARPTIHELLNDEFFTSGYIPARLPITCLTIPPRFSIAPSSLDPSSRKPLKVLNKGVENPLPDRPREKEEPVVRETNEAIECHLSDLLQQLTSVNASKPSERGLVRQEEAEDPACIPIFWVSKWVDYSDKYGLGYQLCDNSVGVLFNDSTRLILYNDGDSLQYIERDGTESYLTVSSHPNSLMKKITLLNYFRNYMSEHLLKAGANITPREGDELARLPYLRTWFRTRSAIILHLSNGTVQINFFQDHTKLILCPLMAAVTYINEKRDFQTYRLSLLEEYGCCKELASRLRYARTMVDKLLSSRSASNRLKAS
UniProt P53350: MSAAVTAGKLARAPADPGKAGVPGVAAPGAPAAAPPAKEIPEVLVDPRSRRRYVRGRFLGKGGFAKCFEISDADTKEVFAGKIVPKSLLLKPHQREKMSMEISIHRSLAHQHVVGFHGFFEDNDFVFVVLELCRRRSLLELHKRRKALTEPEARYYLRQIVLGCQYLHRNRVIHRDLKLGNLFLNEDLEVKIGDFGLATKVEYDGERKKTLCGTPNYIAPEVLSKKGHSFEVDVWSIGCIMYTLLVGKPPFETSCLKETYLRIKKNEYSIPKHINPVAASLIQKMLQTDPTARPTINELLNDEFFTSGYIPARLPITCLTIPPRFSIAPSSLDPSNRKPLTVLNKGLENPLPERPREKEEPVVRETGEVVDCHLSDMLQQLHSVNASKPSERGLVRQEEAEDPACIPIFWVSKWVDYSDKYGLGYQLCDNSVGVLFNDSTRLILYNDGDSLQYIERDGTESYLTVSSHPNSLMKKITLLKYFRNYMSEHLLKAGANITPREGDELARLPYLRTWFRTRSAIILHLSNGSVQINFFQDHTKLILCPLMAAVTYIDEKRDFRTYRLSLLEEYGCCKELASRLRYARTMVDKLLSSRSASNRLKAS

No constants are given. Whether binding was seen depends on the method and setting. In cells and extracts the contact can be indirect. Some entries that bind do so weakly or less than the wild type.

For “Flag-tagged C-terminus (a.a. 306-603) of PLK1 (from UniProt Q07832 306-603) (domain or fragment)”, in assay [1], the binding result is “binds”.
The same measure, in the same setting: to “Flag-tagged N-terminus (a.a. 1-305) of PLK1 (from UniProt Q07832 1-305) (domain or fragment)” belongs “no binding”.
“Flag-tagged wild-type PLK1 (from UniProt Q07832 1-603)”: the binding entry in assay [1] is listed as “binds”.
Take “PLK1 (polo-like kinase 1), endogenous (from UniProt P53350 1-603)”: in assay [2], the binding entry is listed as “binds”.

For the origin of these results see paper PMC9925311.
